Source: PubChem BioAssay AID504834 (National Center for Advancing Translational Sciences (NCATS), 2011)
Where “and” joins values, the source holds several entries; their conditions need not be identical. Equal values may be shown once. The whole screen tested about 320,000 compounds, of which about 22,000 (6.9%) were called active. This list was built around the results that the source calls inconclusive (neither active nor inactive); the mix of calls is not that of the screen. Calls follow the shape of the dose curve; as a rule, active = well fitted inhibition curve with a large enough effect; inconclusive = small, poorly fitted or top-dose-only effect, or another doubt; inactive = no such curve, though single readings can be large or run the other way. Where the call is inconclusive, the potency comes from a doubtful curve fit. A structure can be active in one record and inactive in another.

test: Primary qHTS for delayed death inhibitors of the malarial parasite plastid, 96 hour incubation; conditions: P. falciparum luciferase reporter growth; series mostly up to 28.7 µM; activity change, negative = inhibition: at the top concentration
Summary of the method: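 Parasite growth measured via integrated firefly luciferase reporter in P. falciparum. Infected erythrocytes at 2% hematocrit, 0.05% parasitemia final were treated 96 hours at 37 C under 5% CO2, and luminescence was read.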
% is scaled to controls: 0 for no effect and ±100 for the full control effect; potency is read from the fitted curve at half-maximal effect.

Question: For `CN1CCC[C@@H](CC2c3ccccc3Sc3ccccc32)C1`, which Potency is on record?
Answer: inconclusive: 6.42 µM [inhibitor, single point]

Question: With `CCC(C)NC(=O)c1c(N)n(CC2CCCO2)c2nc3ccccc3nc12` (stereo not drawn) as the compound, how does the Potency read?
Answer: active: 13.1 µM

Question: With `CCOC(=O)c1c(N2C(=O)Nc3ccccc3N2O)n[nH]c1-c1cccc(Cl)c1` as the compound, how does the Potency read?
Answer: inconclusive: 1.31 µM [inhibitor, single point]

Question: With `COc1ccc(-n2nc(C(=O)NCC(=O)N3CCC4(CC3)OCCO4)c3ccccc3c2=O)c(OC)c1` as the compound, how does the Potency read?
Answer: inconclusive: 2.94 µM [inhibitor, partial curve, poor fit]

Question: For `COc1ccccc1NC(=O)Cn1c([N+](=O)[O-])cnc1C`, which Potency is on record?
Answer: inconclusive: 16.5 µM [inhibitor, single point]

Question: With `O=C(NCc1ccncc1)Nc1ccccc1F` as the compound, how does the Potency read?
Answer: inconclusive: 18.5 µM [inhibitor, single point]

Question: For `CCCCn1c(N)c(N(CC(C)C)C(=O)CSc2ccc3c(c2)OCCO3)c(=O)[nH]c1=O`, which Potency is on record?
Answer: inconclusive: 9.28 µM [inhibitor, single point]

Question: For `C=CCn1c(=NC(=O)c2cccc(N3C(=O)CCC3=O)c2)sc2cccc(OC)c21`, which Potency is on record?
Answer: inconclusive: 18.5 µM [inhibitor, single point]

Question: Which Potency does the source give for `Cc1ccc(-n2c(N)c(C#N)c(-c3ccccc3)c(C#N)c2=O)cc1` here?
Answer: inconclusive: 18.5 µM [inhibitor, single point]

Question: With `Cc1nn(-c2ccccc2)nc1CNS(C)(=O)=O` as the compound, how does the “activity change, negative = inhibition” value read?
Answer: inactive: 52%

Question: For `C/C(=N\Nc1nc2c(s1)CCCC2)c1ccc(Cl)cc1`, which Potency is on record?
Answer: inconclusive: 16.5 µM [inhibitor, single point]

Question: Which Potency does the source give for `COc1cccc(NC(=O)CN(C)C(=O)c2ccc(-c3cccc(C(F)(F)F)c3)o2)c1` here?
Answer: active: 0.262 µM

Question: For `CCCc1nn(C)c2c1C(c1ccncc1)C(C#N)=C(N)O2` (stereo not drawn), which “activity change, negative = inhibition” value is on record?
Answer: inactive: -29.5%

Question: For `O.O.O.O=S(=O)([O-])OC[C@H]1O[C@@H](O[C@]2(COS(=O)(=O)[O-])O[C@H](OS(=O)(=O)[O-])[C@@H](OS(=O)(=O)[O-])[C@@H]2OS(=O)(=O)[O-])[C@H](OS(=O)(=O)[O-])[C@@H](OS(=O)(=O)[O-])[C@@H]1OS(=O)(=O)[O-].[Al]`, which Potency is on record?
Answer: inconclusive: 14.7 µM [inhibitor, partial curve, poor fit]

Question: For `CCn1ncc([N+](=O)[O-])c1C(=O)Nc1c(C)nn(Cc2ccc(F)cc2)c1C`, which “activity change, negative = inhibition” value is on record?
Answer: inactive: 8.06%

Question: For `O=C(/C=C/c1ccccc1)Oc1cccc(C(=S)N2CCOCC2)c1`, which Potency is on record?
Answer: inconclusive: 0.522 µM [inhibitor, full curve]

Question: Which “activity change, negative = inhibition” value does the source give for `Cc1ccc(CNC(=O)CN(c2cccc([N+](=O)[O-])c2)S(C)(=O)=O)cc1` here?
Answer: inactive: 35.2%

Question: Which Potency does the source give for `O=C1CN(C(=O)COC(=O)c2oc3ccccc3c2COc2ccccc2)c2ccccc2N1` here?
Answer: inconclusive: 0.117 µM [inhibitor, full curve, poor fit]

Question: With `Cc1ccc(NC(=O)CN(C)C(=O)Cc2c(Cl)cccc2Cl)cc1` as the compound, how does the Potency read?
Answer: inconclusive: 18.5 µM [inhibitor, single point]

Question: For `O=C(CN1CCN(c2ccccn2)CC1)NC(=O)NC1CCCCC1`, which Potency is on record?
Answer: inconclusive: 10.4 µM [inhibitor, single point]

Question: With `O=C(/C=C/c1ccccc1)NCC(=O)N/N=C/c1cccs1` as the compound, how does the Potency read?
Answer: inconclusive: 18.5 µM [inhibitor, single point]

Question: For `COC(=O)CC(c1ccc(OC)c(OC)c1)c1ccc(OC)c(OC)c1`, which activity change, negative = inhibition is on record?
Answer: inactive: 75.9% [at 5.75 µM]

Question: Which “activity change, negative = inhibition” value does the source give for `CC(Cc1cccs1)NC(=O)Nc1ccc([N+](=O)[O-])cc1` (stereo not drawn) here?
Answer: inactive: -0.256%

Question: For `Cc1ccc(C)c(OCC(=O)N2CCN(C(=O)c3ccco3)CC2)c1`, which Potency is on record?
Answer: inconclusive: 0.0104 µM [inhibitor, full curve, poor fit]

Question: With `Cc1ccnc(NC(=O)c2cccc(NC(=O)COc3ccccc3)c2)c1` as the compound, how does the “activity change, negative = inhibition” value read?
Answer: inactive: 5.81%

Question: Which “activity change, negative = inhibition” value does the source give for `Cc1cc(C)cc(NC(=O)CCN2CCOCC2)c1` here?
Answer: inactive: 50.7%

Question: Which “activity change, negative = inhibition” value does the source give for `CCN(CC)S(=O)(=O)c1ccc(O)c(C(=O)OCC(=O)N2CCCC2)c1` here?
Answer: inactive: -1.6%

Question: Which Potency does the source give for `C(=C\c1ccccc1)/C=N/Nc1nc(N2CCOCC2)nc(N2CCOCC2)n1` here?
Answer: inconclusive: 8.28 µM [inhibitor, single point]

Question: Which Potency does the source give for `C/C(=N\NC(N)=S)C1C2C3CC4C5CC(C42)C1C53` (stereo not drawn) here?
Answer: inconclusive: 4.15 µM [inhibitor, partial curve, poor fit]

Question: For `Cc1ccc(Oc2c(C=O)c3ccccc3n2C)cc1`, which Potency is on record?
Answer: inconclusive: 14.7 µM [inhibitor, partial curve]

Question: Which “activity change, negative = inhibition” value does the source give for `Cc1ccc(N2C(=O)c3ccc(N)cc3C2=O)cc1` here?
Answer: inactive: -16.8%

Question: Which Potency does the source give for `C[C@@H](NC(=O)c1ncn(C)c1C(=O)N[C@H](C)c1ccccc1)c1ccccc1` here?
Answer: inconclusive: 18.5 µM [inhibitor, partial curve, poor fit]

Question: With `COc1ccc(Cl)cc1-n1c(=S)sc2c(=O)[nH]c(SCC(=O)C(C)(C)C)nc21` as the compound, how does the “activity change, negative = inhibition” value read?
Answer: inactive: 47.4%

Question: For `C=CCn1c(-c2cc(-c3ccc(C)cc3)nc3ccccc23)n[nH]c1=S`, which Potency is on record?
Answer: inconclusive: 10.4 µM [inhibitor, partial curve]

Question: For `COc1ccc(C/C(C)=N/NS(=O)(=O)c2ccc(Br)cc2)cc1`, which Potency is on record?
Answer: inconclusive: 1.85 µM [inhibitor, single point]

Question: For `CCN1CCN(c2ccc(S(=O)(=O)N3CCCCC3)cc2NC(=O)Cc2ccc(OC)cc2)CC1`, which Potency is on record?
Answer: active: 5.86 µM

Question: For `CCOC(=O)c1c(C)sc2c1N(C(=O)CN(CC)CC)c1ccccc1S2`, which Potency is on record?
Answer: inconclusive: 13.1 µM [inhibitor, single point]

Question: For `O=C1CC(N(CCc2ccccc2)C(=S)Nc2ccccc2)C(=O)N1c1ccc(F)cc1` (stereo not drawn), which Potency is on record?
Answer: inconclusive: 13.1 µM [inhibitor, single point]

Question: With `O=C(O)CNS(=O)(=O)c1ccc(F)cc1` as the compound, how does the Potency read?
Answer: inconclusive: 11.7 µM [inhibitor, partial curve, poor fit]

Question: For `Oc1ccc(Cl)cc1N=Cc1sc2ccccc2c1Cl`, which Potency is on record?
Answer: active: 2.33 µM

Question: Which Potency does the source give for `Cc1ccn(-c2ccc([N+](=O)[O-])cc2)n1` here?
Answer: inconclusive: 0.0165 µM [inhibitor, full curve]

Question: For `CCCOC(=O)c1ccc(NC(=O)CCC(=O)OCC)cc1`, which Potency is on record?
Answer: inconclusive: 10.4 µM [inhibitor, single point]

Question: With `COc1ccc(/C=N/N(C)C2=NCCN2)c(OC)c1OC` as the compound, how does the “activity change, negative = inhibition” value read?
Answer: inactive: 8.97%

Question: Which “activity change, negative = inhibition” value does the source give for `O=C(CSc1nnc(CNC(=O)c2c(F)cccc2F)o1)Nc1ccc2c(c1)OCCO2` here?
Answer: inactive: 12.7%

Question: For `COCCN(Cc1ccccc1)C(=O)c1ccc2c(c1)NC(=O)CS2`, which Potency is on record?
Answer: inconclusive: 11.7 µM [inhibitor, single point]

Question: With `Cc1ccc(CCNS(=O)(=O)c2ccc3c(c2)NC(=O)C(C)C(=O)N3)cc1` (stereo not drawn) as the compound, how does the Potency read?
Answer: inconclusive: 0.0828 µM [inhibitor, full curve, poor fit]

Question: With `O=C(/C=C/c1ccc2c(c1)OCO2)NCCS(=O)(=O)N1CCN(c2ccc(F)cc2)CC1` as the compound, how does the “activity change, negative = inhibition” value read?
Answer: inactive: -24.2%

Question: Which Potency does the source give for `CCc1ccccc1NC(=O)CSc1ccsc1[N+](=O)[O-]` here?
Answer: active: 2.33 µM

Question: For `CC(=O)Nc1ccc(S(=O)(=O)N2CCC(C(=O)c3ccc(Cl)cc3)CC2)cc1`, which “activity change, negative = inhibition” value is on record?
Answer: inactive: 80.3%

Question: For `CN(CCO)c1cc(NCCCN2CCC(Cc3ccccc3)CC2)c2nonc2c1[N+](=O)[O-]`, which “activity change, negative = inhibition” value is on record?
Answer: inactive: -6.8%

Question: For `O=C1CC(c2ccco2)c2ccc3ccccc3c2N1` (stereo not drawn), which Potency is on record?
Answer: inconclusive: 18.5 µM [inhibitor, single point]

Question: Which Potency does the source give for `COc1cccc(NC(=O)CN2C(=O)C(c3ccc(C)cc3)=NC23CCCCCC3)c1` here?
Answer: inconclusive: 13.1 µM [inhibitor, partial curve]

Question: With `C=CCn1c(NCc2ccc(OC)cc2)nc2ccccc21` as the compound, how does the Potency read?
Answer: inconclusive: 18.5 µM [inhibitor, single point]

Question: With `CCC(C(=O)Nc1cccc(C(=O)O)c1)c1ccccc1` (stereo not drawn) as the compound, how does the Potency read?
Answer: inconclusive: 16.5 µM [inhibitor, single point]

Question: With `CC(C)c1cc(Br)ccc1OCCN1C(=O)NC(C)(C)C1=O` as the compound, how does the “activity change, negative = inhibition” value read?
Answer: inactive: 142%

Question: Which Potency does the source give for `S=c1[nH]nc(-c2ccccn2)n1/N=C/c1ccc(Br)s1` here?
Answer: inconclusive: 10.4 µM [inhibitor, single point]

Question: With `CCOc1ccccc1NC(=O)CNC(=O)Cc1ccccc1` as the compound, how does the Potency read?
Answer: inconclusive: 18.5 µM [inhibitor, single point]

Question: With `CC(=O)Nc1ccc(NC(=O)CSc2ncnc3c2cnn3Cc2ccccc2)cc1` as the compound, how does the “activity change, negative = inhibition” value read?
Answer: inactive: 20%

Question: For `Cc1ccc(-c2nn(-c3cc(Cl)ccc3[N+](=O)[O-])c(=O)c3ccccc23)cc1C`, which Potency is on record?
Answer: inconclusive: 8.28 µM [inhibitor, partial curve, poor fit]

Question: For `CC(C)C(NC(=O)c1c(F)cccc1F)C(=O)NCCc1ccc(S(N)(=O)=O)cc1` (stereo not drawn), which “activity change, negative = inhibition” value is on record?
Answer: inactive: 32.7%

Question: With `COCC(C)n1c(C)cc(C(=O)COC(=O)CN=C2NS(=O)(=O)c3ccccc32)c1C` (stereo not drawn) as the compound, how does the Potency read?
Answer: inconclusive: 18.5 µM [inhibitor, single point]

Question: Which Potency does the source give for `CCOc1c(C)cnc2c1c(=O)n(Cc1ccc(Cl)cc1)c(=O)n2C` here?
Answer: inconclusive: 11.7 µM [inhibitor, partial curve, poor fit]

Question: With `CCOCCn1cnc2sc(C(=O)Nc3nc(C)c(C(=O)OCC)s3)c(C)c2c1=O` as the compound, how does the Potency read?
Answer: inconclusive: 4.15 µM [inhibitor, partial curve, poor fit]

Question: For `CCCC(=O)Nc1sc2c(c1C#N)CC(C)(C)NC2(C)C`, which Potency is on record?
Answer: active: 2.08 µM

Question: Which Potency does the source give for `COc1ccc(OCC(=O)Nc2ccc(N3CCOCC3)cc2)cc1` here?
Answer: inconclusive: 18.5 µM [inhibitor, single point]

Question: For `CC(=O)c1ccc(OCC(O)CN2CCN(Cc3ccc4c(c3)OCO4)CC2)cc1` (stereo not drawn), which Potency is on record?
Answer: inactive and active: 4.15 µM

Question: For `CN1CC=C2C(C#N)=C(N)C(C#N)(C#N)[C@H](c3cccc(Cl)c3)C2C1` (stereo partly drawn), which Potency is on record?
Answer: inconclusive: 11.7 µM [inhibitor, partial curve]

Question: For `COc1ccc(CCN(C)C(=O)C23CC4CC(CC(Cl)(C4)C2)C3)cc1OC`, which Potency is on record?
Answer: inconclusive: 3.29 µM [inhibitor, partial curve, poor fit]
